In PubChem BioAssay AID624297 (National Center for Advancing Translational Sciences (NCATS), 2012):
Values joined by “and” are separate entries in the source; they are usually repeats but may differ in a detail not shown here. Equal values may be shown once. The whole screen tested about 340,000 compounds, of which about 6,200 (1.8%) were called active. Inconclusive means that the source gave no clear call. Such entries were picked first, then a sample of the others. Calls come from the whole dose curve; as a rule, active = well fitted activation curve with a large enough effect; inconclusive = small, poorly fitted or top-dose-only effect; inactive = no such curve, though single readings can be large or run the other way. Where the call is inconclusive, the potency comes from a doubtful curve fit.

experiment: A quantitative high throughput screen for small molecules that induce DNA re-replication in SW480 colon adenocarcinoma cells.; note: nearly all actives have a fitted effect of over 55% in size; for re-replication activation: % of control where 0% means no effect; settings: Hoechst DNA content imaging, 48 h; re-replication activation: at 46.1 µM (top of the series) unless noted
Method in brief: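 DNA re-replication was detected as more nuclei of elevated Hoechst intensity after 48 hr exposure to compound (23 nL pinned per well of 250 cells).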
Potency is the fitted concentration of half-maximal effect.

SMILES	re-replication activation	Potency
Cc1cc(=O)oc2c3c(cc(OCC(=O)NC(C)C)c12)OC(C)(C)CC3	inactive: 0.303%	
Cc1ccc2cn[nH]c2c1NC(N)=S	inactive: 1.06%	
C/C=C1\COC(C(=O)NCCCN2CCCC2=O)(C(F)(F)F)C=C1C=C(C)C (configuration not stated)	inactive: 0.866% [at 9.22 µM]	
COc1ccc(CC(=O)Nc2ccc(N(C)C)c3ccccc23)cc1		inconclusive: 6.51 µM [activator, single point]
COc1ccc(C(=O)NCCc2c[nH]c3ccccc23)cc1S(=O)(=O)N1CCOCC1	inactive: 1.72%	
Fc1ccc(CSc2nc3ccccc3[nH]2)c2ccccc12	inactive: -0.949%	
Cc1nonc1NC(=O)CSc1nc(C23CC4CC(CC(C4)C2)C3)nc2ccccc12		inconclusive: 29.1 µM [activator, single point]
Cc1ccc(S(=O)(=O)NNC(=O)C2Cc3c(ccc4ccccc34)O2)cc1 (configuration not stated)	inactive: -5.42%	
C/C(=C/c1ccccc1)C(=O)N1CCN(c2ccc(F)cc2)CC1	inactive: -21%	
CCc1ccc(Nc2ccc3nonc3c2[N+](=O)[O-])cc1	inactive: -92.6%	
CC(C)Cn1c(N)c(C(=O)COC(=O)[C@@H]2CCCN2C(=O)c2cccs2)c(=O)n(C)c1=O		inconclusive: 9.2 µM [activator, single point]
COc1ccc(/C=N/NC(=O)c2nc(Cl)c(Cl)c(N)c2Cl)cc1COc1ccc(F)cc1F		inconclusive: 18.4 µM [activator, single point]
CC(C)[C@H](CO)N(Cc1cccc(F)c1)c1nc(Nc2cccc(Cl)c2)c2ncn(C(C)C)c2n1		inconclusive: 25.9 µM [activator, single point]
Cc1ccc([N+](=O)[O-])c2c1C(N1CCCC1)C(C)(C)O2 (configuration not stated)		inconclusive: 0.731 µM [activator, partial curve, poor fit]
Cc1cc(N2CCN(Cc3cn(C)nc3-c3cccc(Cl)c3)CC2)cc(C)n1		active: 23.1 µM
CC(C)(C)OC(=O)C[C@@H]1C/C=C\C[C@H](CC(=O)N(CCO)Cc2ccccc2)C(=O)N2CCC[C@@H]2COC1=O	inactive: -10.5%	
C/C(=N\NC(=O)c1ccncc1)c1cc2ccccc2oc1=O		inconclusive: 23.1 µM [activator, single point]
CC(C)(C)NC(=O)NC(=O)CSc1ccc(S(=O)(=O)N2CCCCC2)cn1	inactive: 0.724%	
COc1ccc(C2Nc3ccccc3C(=O)N2O)cc1OC (configuration not stated)		inconclusive: 29.1 µM [activator, single point]
CC(=O)Nc1ccc2c(COC(=O)CC3Sc4ccccc4NC3=O)cc(=O)oc2c1 (configuration not stated)		inconclusive: 20.6 µM [activator, single point]
CC1=C[C@@H](C)[C@@H](c2ccccc2)OC1=O		inconclusive: 0.651 µM [activator, full curve]
Cc1onc(-c2ccccc2Cl)c1C(=O)Nc1ccccc1O	inactive: 1.74%	
O=C(CSc1cccc2cccnc12)N1CCCC1		inconclusive: 4.61 µM [activator, full curve, poor fit]

SMILES	re-replication activation	Potency
CCCCC1C(=O)NN(c2ccccc2)C1=O (configuration not stated)	inactive: -0.324%	
Cc1cc(-c2ccc(C(C)C)c(S(=O)(=O)N3CC(=O)Nc4ccccc43)c2)on1		inconclusive: 9.2 µM [activator, partial curve, poor fit]
O=C1OCCN1C(=O)[C@H]1[C@H](c2ccccc2)C(c2ccc(F)cc2)=NN1c1ccc(Br)cc1		active: 23.1 µM
O=C(c1ccc(Cl)cc1)N(Cc1ccco1)C1CCS(=O)(=O)C1 (configuration not stated)	inactive: -12.4%	
CCN(CC)CCCN(Cc1cc2cc3c(cc2[nH]c1=O)OCO3)C(=S)NCc1ccco1		inconclusive: 14.6 µM [activator, single point]
Cc1ccc(NNC(=O)C(O)(c2cccc(C(F)(F)F)c2)c2cccc(C(F)(F)F)c2)cc1		inconclusive: 20.6 µM [activator, single point]
O=C(O)C1C2CCC(O2)C1C(=O)NCCC1=CCCCC1 (configuration not stated)		inconclusive: 0.13 µM [activator, full curve, poor fit]
COc1cc(OC)cc(C(=O)Nc2ccc(-n3cnnn3)c(C)c2)c1	inactive: -0.261%	
CN1CCN(CCCNC(=O)c2ccc(/C=C3\Sc4ccccc4N(Cc4ccc(F)cc4)C3=O)cc2)CC1		inconclusive: 23.1 µM [activator, single point]
c1ccc2nc(N3CCN(Cc4ccc5c(c4)OCO5)CC3)cnc2c1		inconclusive: 32.6 µM [activator, single point]
O[C@@H](c1cc(C(F)(F)F)nc2c(C(F)(F)F)cccc12)[C@H]1CCCCN1		inconclusive: 33.5 µM [activator, single point] and inconclusive: 29.1 µM [activator, partial curve, poor fit]
N#C/C(=C/c1ccc2c(c1)OCO2)C(=O)NCCc1c[nH]c2ccccc12		inconclusive: 29.1 µM [activator, single point]
Cc1ccc(-n2nc3c(=O)n(C(C)C(=O)NCc4ccco4)nc(C)c3c2C)cc1 (configuration not stated)		inconclusive: 5.17 µM [activator, single point]
N#Cc1ccc(-c2cn(-c3ccccc3)c3[n+]2CCCS3)cc1		inconclusive: 7.31 µM [activator, partial curve, poor fit]
COC(=O)C1=C(C(=O)OC)[N+]2=C3N(C(=O)NC2(C)C)[C@H](CO)C[C@@]32c3ccccc3N(Cc3ccccc3)[C@@H]12		inconclusive: 2.31 µM [activator, partial curve, poor fit]
CC(C)(C)OC(=O)N[C@@H](Cc1ccccc1)c1nnc(SCC(=O)c2ccc(Cl)cc2)o1		inconclusive: 25.9 µM [activator, single point]
C/C(CCN1CCc2nc(-c3ccccc3)c(-c3ccccc3)cc2C1)=N\OC[C@@H](C)[C@H](OCc1ccccc1)C(C)C		inconclusive: 13 µM [activator, partial curve, poor fit]
N/C(CC1CC1(Cl)Cl)=N\OC(=O)c1ccccc1 (configuration not stated)		inconclusive: 29.1 µM [activator, single point]
CC(=O)Nc1ccc(S(=O)(=O)NCCC(=O)OCc2ccccc2F)cc1		inconclusive: 7.31 µM [activator, partial curve, poor fit]
COc1ccc(-c2nnc3ccc(SCC(=O)N4CCCCC4)nn23)cc1OC	inactive: -2.1%	
CCOC(=O)C1=C(C)N2C(=C(C#N)[C@@H]1c1ccc(C(=O)OC)cc1)SC[C@@]2(O)C(C)(C)C		inconclusive: 29.1 µM [activator, single point]
CCc1ccc(NC(=O)COC(=O)C2(c3ccc(Cl)cc3)CCCC2)cc1		inconclusive: 23.1 µM [activator, single point]
CC1=Nc2cc(C(=O)NCCCN3CCOCC3)ccc2Sc2c(C)ccc(C)c21		active: 16.4 µM

An excerpt from above in order of length of the SMILES, largest number first.
SMILES	re-replication activation	Potency
CC(C)[C@H](CO)N(Cc1cccc(F)c1)c1nc(Nc2cccc(Cl)c2)c2ncn(C(C)C)c2n1		inconclusive: 25.9 µM [activator, single point]
Cc1ccc(-n2nc3c(=O)n(C(C)C(=O)NCc4ccco4)nc(C)c3c2C)cc1 (configuration not stated)		inconclusive: 5.17 µM [activator, single point]
C/C(=C/c1ccccc1)C(=O)N1CCN(c2ccc(F)cc2)CC1	inactive: -21%	

Carrying on:

SMILES	re-replication activation	Potency
CNC(=O)c1ccc(=O)n(Cc2cccc(C(F)(F)F)c2)c1	inactive: -14.5%	
COc1cccc(OC)c1NC(=O)CN1CCN(C)CC1		inconclusive: 22.4 µM [activator, partial curve, poor fit]
Nc1c(N2CCCC2)cc(Cl)c2nonc12		inconclusive: 29.1 µM [activator, single point]
O=C(CCCCCCCCCCCCC1CCCC1)Nc1ccc(S(=O)(=O)c2ccc(NC(=O)CCCCCCCCCCCCC3CCCC3)cc2)cc1	inactive: 0.871%	
CCC(=O)Nc1cc(-c2nn(C)c(=O)c3ccccc23)ccc1N1CCOCC1	inactive: -4.83%	
CCCC(=O)Nc1cccc(NC(=O)c2ccc3c(c2)OCCO3)c1		inconclusive: 20.6 µM [activator, single point]
CCOC(=O)c1c(NC(=O)CSc2nnc(-c3ccc(C)cc3)o2)sc(C(C)=O)c1C		inconclusive: 29.1 µM [activator, partial curve, poor fit]
Cc1ccc(S(=O)(=O)NC2CCCCC2)c(C)c1NS(C)(=O)=O		inconclusive: 2.91 µM [activator, single point]
O=C(NN=Cc1ccc(OC(F)F)cc1)c1ccc(NS(=O)(=O)c2cccs2)cc1		inconclusive: 23.1 µM [activator, partial curve, poor fit]
CCc1cccc(C)c1N1C(=O)CN(Cc2ccccc2)C1=S		inconclusive: 20.6 µM [activator, single point]
O=C(Nc1ccc(C#Cc2ccccc2)cc1)C1CC1	inactive: 17.8%	
CCOC(=O)c1sc(NC(=O)Cc2c(F)cccc2Cl)nc1C	inactive: 5.75%	
COc1cc(CNC(C)(C)CO)cc(Br)c1OCc1ccc(Cl)cc1		inconclusive: 23.1 µM [activator, single point]
O=C(NCCO)c1nc(C(=O)c2ccccc2)c2ccccc2n1	inactive: -2.55%	
c1ccc2c(c1)nc(N1CCCCCC1)c1ccccc12		inconclusive: 29.1 µM [activator, single point]
Cc1nnc(SCC(=O)NNC(=O)c2ccco2)s1		inconclusive: 0.092 µM [activator, partial curve, poor fit]
CCOC(=O)Nc1ccc(NS(=O)(=O)c2ccc(C)cc2)cc1		inconclusive: 29.1 µM [activator, single point]
O=C(c1cccc(F)c1)N1CCN(C(=O)C(c2ccccc2)c2ccccc2)CC1	inactive: 5.66%	
O=S(=O)(Nc1ccccn1)c1ccc(C(F)(F)F)cc1Cl		active: 20.6 µM
Nc1nonc1-n1nnc(C(=O)N/N=C/c2ccc(Br)cc2)c1CSC1=NCCS1		inconclusive: 20.6 µM [activator, partial curve, poor fit]
COc1cc2ccccc2ccc1=NO		inconclusive: 18.4 µM [activator, single point]
